PubChem BioAssay AID1259405, NCATS, 2018

- Purpose: 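Knock-downs that lift recombinant protein yield in hamster ovary cells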 (primary screen)
- Cell system: Chinese hamster CHO-K1 ovary cells with stable secreted eGFP expression
- Reagents: single siRNA against mouse genes, 0.8 pmol siRNA per well (2 µl of 400 nM stock)
- Time to read-out: 3 days
- Detection: 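Per-well intracellular GFP measured by laser scanning cytometry, plus viability from ATP luminescence, each relative to plate median of non-targeting control wells, in %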
- Direction: GFP, % of control: higher = more GFP per well, higher productivity; viability (ATP), % of control: higher = more viable cells (more ATP)
- Rule for the call: 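a knock-down is called active if GFP reaches 120% or more of non-targeting control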
Shown is one part, drawn at random, of about 50,000 reagents. Over the whole deposit, about 4,000 (8%) got an active call. 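Mouse siRNA library applied to hamster cells; one well for each siRNA.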 Unmarked entries are inactive. Reagents against one gene are numbered here.

{"gene": "Ftmt", "reagent no.": 1, "GFP, % of control": 67, "viability (ATP), % of control": 70}
{"gene": "Ftmt", "reagent no.": 2, "GFP, % of control": 57, "viability (ATP), % of control": 85.9}
{"gene": "Ftmt", "reagent no.": 3, "GFP, % of control": 69.6, "viability (ATP), % of control": 82}
{"gene": "Yes1", "reagent no.": 1, "GFP, % of control": 101, "viability (ATP), % of control": 86.1}
{"gene": "Yes1", "reagent no.": 2, "GFP, % of control": 87.6, "viability (ATP), % of control": 91.8}
{"gene": "Yes1", "reagent no.": 3, "GFP, % of control": 63.9, "viability (ATP), % of control": 63.2}
{"gene": "Eno2", "reagent no.": 1, "GFP, % of control": 117, "viability (ATP), % of control": 137}
{"gene": "Eno2", "reagent no.": 2, "GFP, % of control": 73.2, "viability (ATP), % of control": 85.8}
{"gene": "Eno2", "reagent no.": 3, "GFP, % of control": 46.1, "viability (ATP), % of control": 50}
{"gene": "Chrac1", "reagent no.": 1, "GFP, % of control": 93.8, "viability (ATP), % of control": 107}
{"gene": "Chrac1", "reagent no.": 2, "GFP, % of control": 110, "viability (ATP), % of control": 93.3}
{"gene": "Arln", "reagent no.": 1, "GFP, % of control": 70.2, "viability (ATP), % of control": 86.7}
{"gene": "Arln", "reagent no.": 2, "GFP, % of control": 18.6, "viability (ATP), % of control": 13.9}
{"gene": "Arln", "reagent no.": 3, "GFP, % of control": 56.9, "viability (ATP), % of control": 67.6}
{"gene": "Fbxw13", "reagent no.": 1, "GFP, % of control": "182 (active)", "viability (ATP), % of control": 122}
{"gene": "Fbxw13", "reagent no.": 2, "GFP, % of control": 43.6, "viability (ATP), % of control": 57.9}
{"gene": "Fbxw13", "reagent no.": 3, "GFP, % of control": 108, "viability (ATP), % of control": 78.6}

Part of the list above in another layout:
| gene | reagent no. | GFP, % of control | viability (ATP), % of control |
| --- | --- | --- | --- |
| Chrac1 | 1 | 93.8 | 107 |
| Chrac1 | 2 | 110 | 93.3 |
| Arln | 1 | 70.2 | 86.7 |

Additional entries follow.
{"gene": "Obsl1", "reagent no.": 1, "GFP, % of control": 59, "viability (ATP), % of control": 62.9}
{"gene": "Obsl1", "reagent no.": 2, "GFP, % of control": 63.1, "viability (ATP), % of control": 88.8}
{"gene": "Obsl1", "reagent no.": 3, "GFP, % of control": 83.1, "viability (ATP), % of control": 74.3}
{"gene": "Six2", "reagent no.": 1, "GFP, % of control": 85.7, "viability (ATP), % of control": 58.2}
{"gene": "Six2", "reagent no.": 2, "GFP, % of control": 69.9, "viability (ATP), % of control": 73}
{"gene": "Six2", "reagent no.": 3, "GFP, % of control": 74, "viability (ATP), % of control": 71.6}
{"gene": "Cdk16", "reagent no.": 1, "GFP, % of control": 88.1, "viability (ATP), % of control": 99.2}
{"gene": "Gpc4", "reagent no.": 1, "GFP, % of control": 75.4, "viability (ATP), % of control": 80.1}
{"gene": "Gpc4", "reagent no.": 2, "GFP, % of control": 57, "viability (ATP), % of control": 33.3}
{"gene": "Gpc4", "reagent no.": 3, "GFP, % of control": 57.6, "viability (ATP), % of control": 55.2}
{"gene": "Abl1", "reagent no.": 1, "GFP, % of control": "294 (active)", "viability (ATP), % of control": 94}
{"gene": "Abl1", "reagent no.": 2, "GFP, % of control": 62.3, "viability (ATP), % of control": 56.3}
{"gene": "Abl1", "reagent no.": 3, "GFP, % of control": 68.3, "viability (ATP), % of control": 79.8}
{"gene": "Abl1", "reagent no.": 4, "GFP, % of control": 110, "viability (ATP), % of control": 77.1}
{"gene": "Abl1", "reagent no.": 5, "GFP, % of control": 101, "viability (ATP), % of control": 99.5}
{"gene": "Abl1", "reagent no.": 6, "GFP, % of control": 75.4, "viability (ATP), % of control": 74.7}
{"gene": "Srp9", "reagent no.": 1, "GFP, % of control": 50.8, "viability (ATP), % of control": 68.9}
{"gene": "Srp9", "reagent no.": 2, "GFP, % of control": 61.1, "viability (ATP), % of control": 88.1}
{"gene": "Srp9", "reagent no.": 3, "GFP, % of control": 58.4, "viability (ATP), % of control": 81.2}
{"gene": "Dnai7", "reagent no.": 1, "GFP, % of control": 99.7, "viability (ATP), % of control": 95.4}
{"gene": "Dnai7", "reagent no.": 2, "GFP, % of control": 87.9, "viability (ATP), % of control": 83.7}
{"gene": "Dnai7", "reagent no.": 3, "GFP, % of control": 65, "viability (ATP), % of control": 103}
{"gene": "Vill", "reagent no.": 1, "GFP, % of control": 83.5, "viability (ATP), % of control": 67.8}
{"gene": "Vill", "reagent no.": 2, "GFP, % of control": 77.2, "viability (ATP), % of control": 77}
